# From PMC7819943, “Rice protein-binding microarrays: a tool to detect cis-acting elements near promoter regions in rice”
# Some of the results follow.
# Target: T1, OsSMF1 (Oryza sativa, UniProt Q6ZLB0 1-436)
# T1 sequence: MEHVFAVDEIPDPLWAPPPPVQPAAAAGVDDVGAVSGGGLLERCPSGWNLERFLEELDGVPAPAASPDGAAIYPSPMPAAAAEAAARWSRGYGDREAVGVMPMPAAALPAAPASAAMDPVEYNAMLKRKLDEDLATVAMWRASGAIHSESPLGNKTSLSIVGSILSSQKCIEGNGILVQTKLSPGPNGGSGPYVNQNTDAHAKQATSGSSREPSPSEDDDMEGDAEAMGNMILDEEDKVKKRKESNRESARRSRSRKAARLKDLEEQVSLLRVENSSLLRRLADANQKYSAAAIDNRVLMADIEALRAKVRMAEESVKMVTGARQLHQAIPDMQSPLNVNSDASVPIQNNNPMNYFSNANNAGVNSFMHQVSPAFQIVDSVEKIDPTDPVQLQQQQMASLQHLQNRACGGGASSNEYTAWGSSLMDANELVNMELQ
# Assay: protein-binding microarray (RPBM); PBS, 2% BSA, 51.3 ng/ul salmon testes DNA, 50 uM zinc acetate, 200 nM TF, 25 C, 1 h; high values mean tight binding
# Settings: protein: recombinant; tags: N-terminal polyhistidine and DsRed monomer fusion (pET32a); chain copies: 2; label: CyDye5-dUTP incorporated in the synthesized complementary strand; 3' TTTTT single-stranded linker to array surface; dsDNA, one strand shown
# Procedure, shortened: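 A custom Agilent array was converted to double-stranded form by primer extension with Cy5-dUTP and blocked with 2% BSA. Protein at 200 nM in PBS with 2% BSA, salmon testes DNA and 50 µM zinc acetate was applied for 1 h at 25 °C, followed by washing. The proteins were polyhistidine–DsRed N-terminal fusions of transcription factors, expressed in E. coli BL21-CodonPlus and Ni–NTA-purified. The binding signal is per-feature fluorescence intensity (arbitrary units) from an Axon 4000B scanner.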
row,Sequence,binding signal
1,TACCATGATATTATCCTTGCTGCCACATCCTCGTTTCGTCCGGAGTCACCTAGTGCAG,3660 fluorescence intensity (a.u.)
2,ATCATCACTCACCGACACCGTGGGTCCCACCGAACTCCCGCGGAGTCACCTAGTGCAG,3180 fluorescence intensity (a.u.)
3,GGAAAACATACACCGAAGGTCCTTGGACTTGTCATCGAGTCGGAGTCACCTAGTGCAG,3190 fluorescence intensity (a.u.)
4,CGGGGCTAGGCCGCCGGTGGGGAGGCTTCGGGAGGTGGGGCGGAGTCACCTAGTGCAG,3210 fluorescence intensity (a.u.)
5,AATTCAGTCACCAACTGTTCGACGGATTGCTAGTTTGCCACGGAGTCACCTAGTGCAG,3680 fluorescence intensity (a.u.)
6,AAACCATCAAATCTGATTTACCCGCTTGAATGGATGGCAACGGAGTCACCTAGTGCAG,3680 fluorescence intensity (a.u.)
7,TATACGACATATACAAACTTTGTATATGACGTAGACAAAACGGAGTCACCTAGTGCAG,5140 fluorescence intensity (a.u.)
8,GGAAGAAAGACGAGTGGTTGCCACGTGGCACGCCGGGTCCCGGAGTCACCTAGTGCAG,16100 fluorescence intensity (a.u.)
9,AACAATTTTGGTCAATTCAGAATAGCTGACTGTGTATTGTCGGAGTCACCTAGTGCAG,7340 fluorescence intensity (a.u.)
10,CTCATTCTGCGTGCCCTTACTTAATCCTCATCCTCATTACCGGAGTCACCTAGTGCAG,3330 fluorescence intensity (a.u.)
11,ACTGCGCGTGGGCGGGCGTGACGTGCAGCTCCCGCGGCGCCGGAGTCACCTAGTGCAG,7280 fluorescence intensity (a.u.)
12,TTTCTTTCTTTCTGCATGATTCAGTTTTCCCGTTGTTGATCGGAGTCACCTAGTGCAG,3600 fluorescence intensity (a.u.)
13,TGACTCAGTATCGATCTGACGTGGCGCTTACGTGGCAATTCGGAGTCACCTAGTGCAG,48000 fluorescence intensity (a.u.)
14,TGTCGGAGCCCGCGAGGATGTCCTTCTTCTTCTTCTCCTCCGGAGTCACCTAGTGCAG,3360 fluorescence intensity (a.u.)
15,CGGAGCGTGCGTCGTCGTCACCGGCGATCCCCACCCACCTCGGAGTCACCTAGTGCAG,4600 fluorescence intensity (a.u.)
16,CACTGCCGCCGCCCAGCCCTACAGCAGCTGCCACGTGCACCGGAGTCACCTAGTGCAG,9530 fluorescence intensity (a.u.)
17,ACAAACCGAAAATAGGTTATTAATATTGCTGCAAACTGATCGGAGTCACCTAGTGCAG,3190 fluorescence intensity (a.u.)
18,GAATTATTTGGTCAGTGTCACTTGCTGCCAGGACCCAACACGGAGTCACCTAGTGCAG,3910 fluorescence intensity (a.u.)
19,TACTAGTGTGGACATGTTCCCCTTTTCAGGAAGATGGCAGCGGAGTCACCTAGTGCAG,40300 fluorescence intensity (a.u.)
20,CGCTCATGAAGCTCCTTCCCTACGCGCGCTCGCCGAATCGCGGAGTCACCTAGTGCAG,44000 fluorescence intensity (a.u.)
21,AGCACCCACGTGGCGAAATCCTAACCGTCCACGTGGATCCCGGAGTCACCTAGTGCAG,17600 fluorescence intensity (a.u.)

row,Sequence,binding signal
1,AACCCTGTGGCCACTGCCAAGAAGCCGGTGGTGGTGGTGGCGGAGTCACCTAGTGCAG,24800 fluorescence intensity (a.u.)
2,TACTGGATCTCTGCTTCTGACCAAAATGTTCCGCATTGAACGGAGTCACCTAGTGCAG,35300 fluorescence intensity (a.u.)
3,GGGGAGCACCTGGGCCGGTGGATGAGGCTTAGCATGGATCCGGAGTCACCTAGTGCAG,3200 fluorescence intensity (a.u.)
4,GCTCGATCTCCGACGTCATGCGCCGCTCGCTGCCCGTCGACGGAGTCACCTAGTGCAG,3820 fluorescence intensity (a.u.)
5,GAGTTTGATAGCTTAGCAGAAATAGTTTTGCTGACGTGGCCGGAGTCACCTAGTGCAG,40700 fluorescence intensity (a.u.)
6,ATTCCAGCCCGGCCCGAATACGTGGATGGGCCAAAATTGGCGGAGTCACCTAGTGCAG,3430 fluorescence intensity (a.u.)
7,ACAGTTGTTGGAAGTGTAAGACTGACATGGCCAACGATCCCGGAGTCACCTAGTGCAG,4190 fluorescence intensity (a.u.)
8,ACCAGCACTTCTACAACCTCAATGACACAGCCATGCTCAGCGGAGTCACCTAGTGCAG,3560 fluorescence intensity (a.u.)
9,GCAACCACAACCACCAACGACGCCGATCGATCGAGCCAACCGGAGTCACCTAGTGCAG,3340 fluorescence intensity (a.u.)
10,AGAGACCGAGTTCCCAAATCCCAACGGCCCAACCTGATCCCGGAGTCACCTAGTGCAG,4110 fluorescence intensity (a.u.)
11,ACAGCGATGGCGGCGTCGAGAGATCTCCGGCTCACCACCGCGGAGTCACCTAGTGCAG,3320 fluorescence intensity (a.u.)
12,ATAGAGATTTATTTTATCATAGTTTATTTTCAAGCCTTATCGGAGTCACCTAGTGCAG,19800 fluorescence intensity (a.u.)
13,AAGAAGTACCACTCAACGATACATTTAGGAGCGTCAAGATCGGAGTCACCTAGTGCAG,3290 fluorescence intensity (a.u.)
14,TAAGCTAATGCTAACAACCGCACCACGTGTTCGGCCCGGACGGAGTCACCTAGTGCAG,6030 fluorescence intensity (a.u.)
15,GCGTCCCGGTAGCCGCCAGCTCAGCGCGCACGCAGCCATCCGGAGTCACCTAGTGCAG,5430 fluorescence intensity (a.u.)
16,CCATGGGAGCGGCTGCCGTGGACGCGAACGGCATCTCCTTCGGAGTCACCTAGTGCAG,3160 fluorescence intensity (a.u.)
17,TATGGTGTGCAGATGGATACCTGATCTTATCTAATATTGTCGGAGTCACCTAGTGCAG,3190 fluorescence intensity (a.u.)
18,GTGGTGGTAGTAGTAGTAGTAGTACCGTACAAGCCGCCCTCGGAGTCACCTAGTGCAG,23400 fluorescence intensity (a.u.)
19,CGCATCTTGCAGAGGACACACGTGCCTCATCAGGGGATTACGGAGTCACCTAGTGCAG,3960 fluorescence intensity (a.u.)
20,TGCGGACTCCCTCGAGGTCCATCCTGTTTGATATCAGCTCCGGAGTCACCTAGTGCAG,4120 fluorescence intensity (a.u.)
21,AGCCAGAATGTACCGTTGGTACCACGTACTGATCCTATCCCGGAGTCACCTAGTGCAG,7420 fluorescence intensity (a.u.)

# Three entries from above, bar-delimited.
row | Sequence | binding signal
4 | GCTCGATCTCCGACGTCATGCGCCGCTCGCTGCCCGTCGACGGAGTCACCTAGTGCAG | 3820 fluorescence intensity (a.u.)
5 | GAGTTTGATAGCTTAGCAGAAATAGTTTTGCTGACGTGGCCGGAGTCACCTAGTGCAG | 40700 fluorescence intensity (a.u.)
6 | ATTCCAGCCCGGCCCGAATACGTGGATGGGCCAAAATTGGCGGAGTCACCTAGTGCAG | 3430 fluorescence intensity (a.u.)
